# Data as given in the supplement of paper PMC4604168 (melanoma cell lines).
# The other results are listed elsewhere or left out. Repeats are few or missing, and single values can be far off.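 Cells were imaged in 1,536-well plates, and nuclei stained with an antibody against cleaved PARP were counted against all DNA-stained nuclei to give the apoptosis fraction. Screening doses were chosen to leave most cells alive, and resting and induced cleaved-PARP levels differ strongly between cell lines.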
# Columns and labels:
# Test in all cases: cleaved PARP positive nuclei fraction relative to DMSO control; melanoma cells; higher = more apoptosis
# Settings in all cases: library dose: low library concentration; 72 h
# COLO792 = system: COLO792
# COLO800 = system: COLO800
# COLO829 = system: COLO829
# G361 = system: G361
# IPC-298 = system: IPC-298
# IST-MEL1 = system: IST-MEL1
# LB2518-MEL = system: LB2518-MEL
# LOXIMVI = system: LOXIMVI
# MZ2-MEL = system: MZ2-MEL
# MeWo = system: MeWo
# RPMI7951 = system: RPMI7951
# RVH-421 = system: RVH-421
# SkMel28 = system: SkMel28
# SkMel2 = system: SkMel2
# SkMel30 = system: SkMel30
# SkMel5 = system: SkMel5
# UACC257 = system: UACC257
# UACC62 = system: UACC62
# MEL-HO = system: MEL-HO
SMILES,cleaved PARP positive nuclei fraction (COLO792) [%],cleaved PARP positive nuclei fraction (COLO800) [%],cleaved PARP positive nuclei fraction (COLO829) [%],cleaved PARP positive nuclei fraction (G361) [%],cleaved PARP positive nuclei fraction (IPC-298) [%],cleaved PARP positive nuclei fraction (IST-MEL1) [%],cleaved PARP positive nuclei fraction (LB2518-MEL) [%],cleaved PARP positive nuclei fraction (LOXIMVI) [%],cleaved PARP positive nuclei fraction (MZ2-MEL) [%],cleaved PARP positive nuclei fraction (MeWo) [%],cleaved PARP positive nuclei fraction (RPMI7951) [%],cleaved PARP positive nuclei fraction (RVH-421) [%],cleaved PARP positive nuclei fraction (SkMel28) [%],cleaved PARP positive nuclei fraction (SkMel2) [%],cleaved PARP positive nuclei fraction (SkMel30) [%],cleaved PARP positive nuclei fraction (SkMel5) [%],cleaved PARP positive nuclei fraction (UACC257) [%],cleaved PARP positive nuclei fraction (UACC62) [%],cleaved PARP positive nuclei fraction (MEL-HO) [%]
"OCc1c[nH]c2ccccc12 [Indole-3-carbinol] + COC(=O)c1sccc1S(=O)(=O)Nc1ccc(Nc2ccccc2)cc1OC [GSK0660] (first compound 0.8 µM, partner dose 1 µM)",69,215,60.1,51,57.9,180,78,35.6,52.9,53.3,28.9,97.8,66.5,68.6,120,170,109,149,
"Clc1ccc(Nc2nnc(Cc3ccncc3)c3ccccc23)cc1 [vatalanib] + COc1cc2ncnc(Nc3ccc(Oc4ccccc4)cc3)c2cc1OC [SrcI1] (first compound 2 µM, partner dose 2 µM)",125,55.3,68,128,43.2,70.6,71.9,13.2,42.3,62.6,114,77.5,144,120,107,40.2,130,148,
"CC(=O)c1c(C)c2cnc(Nc3ccc(N4CCNCC4)cn3)nc2n(C2CCCC2)c1=O [palbociclib] + COc1cc(Nc2ncc(F)c(Nc3ccc4c(n3)NC(=O)C(C)(C)O4)n2)cc(OC)c1OC [Tamatinib] (first compound 0.04 µM, partner dose 0.4 µM)",240,85.5,72.7,107,287,130,,69.4,,154,111,113,43.3,,86.3,111,214,156,131
"OCc1c[nH]c2ccccc12 [Indole-3-carbinol] + NCC(=O)Nc1ccc(-n2nc(C(F)(F)F)cc2-c2ccc3c(ccc4ccccc43)c2)cc1 [OSU03012] (first compound 0.8 µM, partner dose 1 µM)",95.2,20.8,118,93.7,213,72.7,,156,,99.1,260,44.7,38.1,,129,97.1,85.3,183,65.6
"O=C(Nc1cccc(Cl)c1)Nc1ncc(CCNc2ncnc3ccsc23)s1 + O=C(O)c1ccc(-c2c[nH]c3ncc(-c4ccccc4)cc23)cc1C1CCCC1 [GSK650394] (first compound 0.0008 µM, partner dose 0.16 µM)",243,116,94.3,158,49.1,85.9,,46.7,,102,109,23.9,67.3,,65.6,77.5,42.1,117,77.1
"CC1(C)NC(=O)N(c2ccc([N+](=O)[O-])c(C(F)(F)F)c2)C1=O [nilutamide] + CO[C@@H]1[C@H](N(C)C(=O)c2ccccc2)C[C@H]2O[C@]1(C)n1c3ccccc3c3c4c(c5c6ccccc6n2c5c31)C(=O)NC4 [Midostaurin] (first compound 1 µM, partner dose 0.08 µM)",122,166,132,114,96.4,49.6,,379,,104,42.9,41.6,60.9,123,61.8,145,66.1,121,397
"CC(=O)c1c(C)c2cnc(Nc3ccc(N4CCNCC4)cn3)nc2n(C2CCCC2)c1=O [palbociclib] + O=S(=O)(c1ccccc1)N(CC(F)(F)F)c1ccc(C(O)(C(F)(F)F)C(F)(F)F)cc1 [T0901317] (first compound 0.04 µM, partner dose 1.4 µM)",32.7,86.5,111,142,183,108,,158,,52.1,149,140,110,131,52.5,105,140,96.9,
"Clc1ccc(Nc2nnc(Cc3ccncc3)c3ccccc23)cc1 [vatalanib] + Cc1cc([N+](=O)[O-])ccc1NS(=O)(=O)c1cc(Cl)ccc1Cl [FH535] (first compound 2 µM, partner dose 1 µM)",90.7,54.6,161,220,31.8,102,94.9,256,43.2,58.9,91.8,252,149,13.7,30,106,159,75.6,
"CO[C@@H]1[C@H](N(C)C(=O)c2ccccc2)C[C@H]2O[C@]1(C)n1c3ccccc3c3c4c(c5c6ccccc6n2c5c31)C(=O)NC4 [Midostaurin] + CN(NC(=O)CC(=O)NN(C)C(=S)c1ccccc1)C(=S)c1ccccc1 [STA4783] (first compound 0.08 µM, partner dose 0.006 µM)",153,148,71.3,228,106,85.2,,406,,261,112,108,58.9,,61.3,35.3,164,65,26.4
"C=CCNC1=C2C[C@@H](C)C[C@H](OC)[C@H](O)[C@@H](C)/C=C(\C)[C@H](OC(N)=O)[C@@H](OC)/C=C\C=C(/C)C(=O)NC(=CC1=O)C2=O [Tanespimycin] + O=C(Nc1ccccc1)c1cc([N+](=O)[O-])ccc1Cl [GW9662] (first compound 0.002 µM, partner dose 2 µM)",50.2,70.1,109,83.6,95.7,127,67,85.3,85.4,229,96.9,85.4,50.1,20.3,415,139,53.6,109,
"C=CCNC1=C2C[C@@H](C)C[C@H](OC)[C@H](O)[C@@H](C)/C=C(\C)[C@H](OC(N)=O)[C@@H](OC)/C=C\C=C(/C)C(=O)NC(=CC1=O)C2=O [Tanespimycin] + O=C(O)C(=O)Nc1sc2c(c1C(=O)O)CCNC2 [TCS401] (first compound 0.002 µM, partner dose 1.66667 µM)",79.8,33.5,90.4,87,123,124,94.4,55.7,216,65.8,78.8,68.7,124,124,134,75.5,191,42.4,
"C=CCNC1=C2C[C@@H](C)C[C@H](OC)[C@H](O)[C@@H](C)/C=C(\C)[C@H](OC(N)=O)[C@@H](OC)/C=C\C=C(/C)C(=O)NC(=CC1=O)C2=O [Tanespimycin] + O=C(Nc1cccc(Cl)c1)Nc1ncc(CCNc2ncnc3ccsc23)s1 [SNS314] (first compound 0.002 µM, partner dose 0.0008 µM)",155,153,133,107,90.2,48.3,,527,,216,119,42.8,39.8,132,70.7,134,299,133,398
"OCc1c[nH]c2ccccc12 [Indole-3-carbinol] + COc1ccc(-c2ccc3c(N4CCOCC4)nc(N4C[C@@H](C)O[C@@H](C)C4)nc3n2)cc1CO [KU0063794] (first compound 0.8 µM, partner dose 0.02 µM)",153,67.4,149,144,94.8,171,84.4,147,65.9,98.2,151,237,147,69.7,68.6,156,235,136,
"O=C(CCCCCCC(=O)Nc1ccccc1)NO [vorinostat] + OCCn1cc(-c2cnc3nnn(Cc4ccc5ncccc5c4)c3n2)cn1 [PF04217903] (first compound 0.08 µM, partner dose 1 µM)",107,66.8,153,115,48.5,193,,341,,163,94.1,51.2,73.5,74.3,65.2,151,84.4,235,118
"OCc1c[nH]c2ccccc12 [Indole-3-carbinol] + Oc1cc(-c2nc(-c3ccccc3)[nH]c2-c2ccncc2)ccc1Cl [L779450] (first compound 0.8 µM, partner dose 0.2 µM)",121,111,41.8,89.3,118,133,136,53.5,38,37,110,153,113,86.4,267,77.7,255,133,
"C=CCNC1=C2C[C@@H](C)C[C@H](OC)[C@H](O)[C@@H](C)/C=C(\C)[C@H](OC(N)=O)[C@@H](OC)/C=C\C=C(/C)C(=O)NC(=CC1=O)C2=O [Tanespimycin] + COc1ccc(-c2ccc3c(N4CCOCC4)nc(N4C[C@@H](C)O[C@@H](C)C4)nc3n2)cc1CO [KU0063794] (first compound 0.002 µM, partner dose 0.02 µM)",138,88.3,273,80,101,44.3,,188,,42.1,110,99.8,53.8,132,35.7,129,25,47.2,
"C[C@]1(c2nc3c(C(N)=O)cccc3[nH]2)CCCN1 [Veliparib] + COc1cc2c(Oc3ccc4[nH]c(C)cc4c3F)ncnc2cc1OCCCN1CCCC1 [cediranib] (first compound 1.4 µM, partner dose 0.4 µM)",41.2,147,23.9,147,46.3,91.5,,67.9,,53,97.9,33.8,50.4,,140,41.8,27.8,127,45.2
"Nc1cccc2c1CN(C1CCC(=O)NC1=O)C2=O (stereo not given) [lenalidomide] + COc1cc2c(Oc3ccc4[nH]c(C)cc4c3F)ncnc2cc1OCCCN1CCCC1 [cediranib] (first compound 1 µM, partner dose 0.4 µM)",121,86.9,170,57.3,98.4,35.3,,89.7,,97.9,81.2,26.6,66.9,,56,32.8,49.3,116,35.4

# Taken from above:
# C=CCNC1=C2C[C@@H](C)C[C@H](OC)[C@H](O)[C@@H](C)/C=C(\C)[C@H](OC(N)=O)[C@@H](OC)/C=C\C=C(/C)C(=O)NC(=CC1=O)C2=O [Tanespimycin] + O=C(Nc1ccccc1)c1cc([N+](=O)[O-])ccc1Cl [GW9662] (first compound 0.002 µM, partner dose 2 µM) | cleaved PARP positive nuclei fraction (MeWo) [%]: 229
# O=C(CCCCCCC(=O)Nc1ccccc1)NO [vorinostat] + OCCn1cc(-c2cnc3nnn(Cc4ccc5ncccc5c4)c3n2)cn1 [PF04217903] (first compound 0.08 µM, partner dose 1 µM) | cleaved PARP positive nuclei fraction (IST-MEL1) [%]: 193
